Reference: patent publication US20250283871A1, “COMPOSITIONS AND METHODS FOR MODULATING THE INTERACTION BETWEEN SS18-SSX FUSION ONCOPROTEIN AND NUCLEOSOMES” (Dana-Farber Cancer Institute, Inc., priority 2020, published 2025)

Test system: BAF complex subunits and histone proteins
Test: Mass spectrometry proteomics of purified HA-SS18 WT and HA-SS18-SSX1 complexes (Tables 5A-5E)
Set-up: species or system human
[1] = HA-SS18SSX1_NE_peptides: protein co-purified with HA-SS18-SSX1 BAF complexes from soluble nuclear extract (NE), HEK-293T cells
[2] = HA-SS18WT_NE_peptides: proteins co-purified with HA-SS18 WT from nuclear extract (NE), HEK-293T

B1: IRS4 (protein, UniProt O14654 1-1257, looked up)
Insulin receptor substrate 4: MASCSFTRDQATRRLRGAAAAAAAALAAVVTTPLLSSGTPTALIGTGSSCPGAMWLSTATGSRSDSESEEEDLPVGEEVCKRGYLRKQKHGHRRYFVLKLETADAPARLEYYENARKFRHSVRAAAAAAAAAASGAAIPPLIPPRRVITLYQCFSVSQRADARYRHLIALFTQDEYFAMVAENESEQESWYLLLSRLILESKRRRCGTLGAQPDGEPAALAAAAAAEPPFYKDVWQVIVKPRGLGHRKELSGVFRLCLTDEEVVFVRLNTEVASVVVQLLSIRRCGHSEQYFFLEVGRSTVIGPGELWMQVDDCVVAQNMHELFLEKMRALCADEYRARCRSYSISIGAHLLTLLSARRHLGLVPLEPGGWLRRSRFEQFCHLRAIGDGEDEMLFTRRFVTPSEPVAHSRRGRLHLPRGRRSRRAVSVPASFFRRLAPSPARPRHPAEAPNNGARLSSEVSGSGSGNFGEEGNPQGKEDQEGSGGDYMPMNNWGSGNGRGSGGGQGSNGQGSSSHSSGGNQCSGEGQGSRGGQGSNGQGSGGNQCSRDGQGTAGGHGSGGGQRPGGGHGSGGGQGPGDGHGSGGGKNSGGGKGSGSGKGSDGDGERGKSLKKRSYFGKLTQSKQQQMPPPPPPPPPPPPAGGTGGKGKSGGRFRLYFCVDRGATKECKEAKEVKDAEIPEGAARGPHRARAFDEDEDDPYVPMRPGVATPLVSSSDYMPMAPQNVSASKKRHSRSPFEDSRGYMMMFPRVSPPPAPSPPKAPDTNKEDDSKDNDSESDYMFMAPGAGAIPKNPRNPQGGSSSKSWSSYFSLPNPFRSSPLGQNDNSEYVPMLPGKFLGRGLDKEVSYNWDPKDAASKPSGEGSFSKPGDGGSPSKPSDHEPPKNKAKRPNRLSFITKGYKIKPKPQKPTHEQREADSSSDYVNMDFTKRESNTPAPSTQGLPDSWGIIAEPRQSAFSNYVNVEFGVPFPNPANDLSDLLRAIPRANPLSLDSARWPLPPLPLSATGSNAIEEEGDYIEVIFNSAMTPAMALADSAIRYDAETGRIYVVDPFSECCMDISLSPSRCSEPPPVARLLQEEEQERRRPQSRSQSFFAAARAAVSAFPTDSLERDLSPSSAPAVASAAEPTLALSQVVAAASALAAAPGIGAAAAAAGFDSASARWFQPVANAADAEAVRGAQDVAGGSNPGAHNPSANLARGDNQAGGAAAAAAAPEPPPRSRRVPRPPEREDSDNDDDTHVRMDFARRDNQFDSPKRGR
2: Total (peptides) [1] | Unique (peptides) [1] | Total (peptides) [2] | Unique (peptides) [2]
